Laboratory results as given in paper PMC6329143.
These are yes or no findings as the source states them, for the method shown. In cells and extracts the contact can be indirect. Some results given as binding are weak or reduced against the parent protein; the word gives no strength. Tags and fused reporters may be left off the sequences shown.

By UniProt entry, the sequences of proteins in these tests, tags left out.
UniProt P15056: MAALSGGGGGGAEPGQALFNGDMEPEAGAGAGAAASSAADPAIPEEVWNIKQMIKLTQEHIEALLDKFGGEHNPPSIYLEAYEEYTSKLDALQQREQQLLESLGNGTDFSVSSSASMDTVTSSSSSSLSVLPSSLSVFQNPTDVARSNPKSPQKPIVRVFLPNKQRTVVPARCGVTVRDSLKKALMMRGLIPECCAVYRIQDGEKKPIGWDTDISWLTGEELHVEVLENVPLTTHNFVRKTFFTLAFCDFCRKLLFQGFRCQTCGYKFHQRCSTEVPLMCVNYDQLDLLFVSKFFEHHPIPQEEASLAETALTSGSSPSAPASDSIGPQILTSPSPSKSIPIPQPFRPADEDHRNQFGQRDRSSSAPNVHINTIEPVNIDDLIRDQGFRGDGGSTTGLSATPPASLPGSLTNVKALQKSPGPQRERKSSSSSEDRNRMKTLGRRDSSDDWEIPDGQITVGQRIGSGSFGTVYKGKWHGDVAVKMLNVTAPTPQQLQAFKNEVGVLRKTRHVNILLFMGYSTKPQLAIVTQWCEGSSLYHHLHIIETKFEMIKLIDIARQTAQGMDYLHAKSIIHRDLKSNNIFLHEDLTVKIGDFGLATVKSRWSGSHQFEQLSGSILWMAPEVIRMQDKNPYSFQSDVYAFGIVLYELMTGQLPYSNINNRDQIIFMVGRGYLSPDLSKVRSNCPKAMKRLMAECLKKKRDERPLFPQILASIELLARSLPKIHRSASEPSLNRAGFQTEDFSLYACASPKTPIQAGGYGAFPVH

Biological target: B-Raf (Flag-B-Raf) (UniProt P15056)
Test: co-IP; HA-HO-1 co-transfected with or without Flag-B-Raf into HEK293T cells; immunoprecipitated with anti-Flag antibody, immunoblotted with antibodies against HA and Flag

binding: binds
B1: Heme oxygenase 1 (HA-HO-1) (enzyme, UniProt P09601 1-288)
chain: MERPQPDSMPQDLSEALKEATKEVHTQAENAEFMRNFQKGQVTRDGFKLVMASLYHIYVALEEEIERNKESPVFAPVYFPEELHRKAALEQDLAFWYGPRWQEVIPYTPAMQRYVKRLHEVGRTEPELLVAHAYTRYLGDLSGGQVLKKIAQKALDLPSSGEGLAFFTFPNIASATKFKQLYRSRMNSLEMTPAVRQRVIEEAKTAFLLNIQLFEELQELLTHDTKDQSPSRAPGLRQRASNKVQDSAPVETPRGKPPLNTRSQAPLLRWVLTLSFLVATVAVGLYAM
